Measured values reported in publication PMC9260180, “Blocking the Farnesyl Pocket of PDEδ Reduces Rheb-Dependent mTORC1 Activation and Survival of Tsc2-Null Cells” (Frontiers in Pharmacology, 2022).
No constants are given. Whether binding was seen depends on the method and setting. Some binding calls cover weakened binding; strength is not graded here.

Amino acid sequences for entries named in this document (tags omitted).
UniProt P36405: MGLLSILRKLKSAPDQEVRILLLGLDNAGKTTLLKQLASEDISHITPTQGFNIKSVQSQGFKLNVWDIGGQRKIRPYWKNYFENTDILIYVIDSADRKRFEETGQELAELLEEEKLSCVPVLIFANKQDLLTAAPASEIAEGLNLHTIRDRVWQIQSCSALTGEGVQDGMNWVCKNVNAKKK
UniProt P36404: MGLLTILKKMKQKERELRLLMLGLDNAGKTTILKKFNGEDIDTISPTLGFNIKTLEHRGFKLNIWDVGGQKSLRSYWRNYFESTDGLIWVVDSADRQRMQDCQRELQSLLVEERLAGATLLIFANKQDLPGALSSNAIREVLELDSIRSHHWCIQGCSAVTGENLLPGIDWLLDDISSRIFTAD

Legend:
[1] = target: T1, INPP5E (UniProt Q9NRR6); experiment: two-hybrid; quantitative lacZ read-out: diploid yeast with bait and prey grown on DO-2 with the β-galactosidase substrate ONPG, colorimetric; Deltazinone 1 or Deltasonamide 1 titrated, 7 h or 24 h; the interaction as measured without or below the effective compound concentration
T1 sequence: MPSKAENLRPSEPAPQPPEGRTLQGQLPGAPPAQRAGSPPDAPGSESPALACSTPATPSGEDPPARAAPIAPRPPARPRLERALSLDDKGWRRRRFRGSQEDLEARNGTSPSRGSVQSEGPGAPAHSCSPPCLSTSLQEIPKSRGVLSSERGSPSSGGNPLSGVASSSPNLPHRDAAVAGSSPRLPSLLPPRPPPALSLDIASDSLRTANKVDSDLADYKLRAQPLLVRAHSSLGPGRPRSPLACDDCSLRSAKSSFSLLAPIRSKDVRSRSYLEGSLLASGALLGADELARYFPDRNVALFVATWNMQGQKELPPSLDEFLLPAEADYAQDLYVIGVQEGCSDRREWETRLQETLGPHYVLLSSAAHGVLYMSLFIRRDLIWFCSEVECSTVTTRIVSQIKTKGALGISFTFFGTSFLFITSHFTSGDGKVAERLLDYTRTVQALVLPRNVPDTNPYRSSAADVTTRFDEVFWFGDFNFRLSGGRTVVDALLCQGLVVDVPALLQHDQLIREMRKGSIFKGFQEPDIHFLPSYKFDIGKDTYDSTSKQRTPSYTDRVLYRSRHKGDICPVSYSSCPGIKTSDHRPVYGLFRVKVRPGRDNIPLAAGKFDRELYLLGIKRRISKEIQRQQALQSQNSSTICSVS

[2] = target: T2, GRK1 (UniProt Q15835); experiment: as above
T2 sequence: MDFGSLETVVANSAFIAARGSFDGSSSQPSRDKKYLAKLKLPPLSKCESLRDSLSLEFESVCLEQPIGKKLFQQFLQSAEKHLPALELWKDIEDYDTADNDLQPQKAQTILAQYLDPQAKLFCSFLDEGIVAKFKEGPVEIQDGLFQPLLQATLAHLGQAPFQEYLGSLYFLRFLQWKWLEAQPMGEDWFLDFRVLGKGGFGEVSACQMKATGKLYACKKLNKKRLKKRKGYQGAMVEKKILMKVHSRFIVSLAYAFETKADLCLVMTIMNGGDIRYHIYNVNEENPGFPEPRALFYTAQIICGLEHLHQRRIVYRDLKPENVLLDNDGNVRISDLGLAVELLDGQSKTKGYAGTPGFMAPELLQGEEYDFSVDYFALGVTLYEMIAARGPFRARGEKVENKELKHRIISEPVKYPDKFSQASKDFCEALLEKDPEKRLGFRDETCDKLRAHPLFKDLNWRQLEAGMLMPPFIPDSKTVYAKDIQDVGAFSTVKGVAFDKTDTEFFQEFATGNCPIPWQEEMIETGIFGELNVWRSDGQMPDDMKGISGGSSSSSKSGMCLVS

[3] = target: Rheb (Ras homolog enriched in brain) (UniProt Q15382); experiment: as above
[4] = target: Arl3 (Arf-like GTPase) (UniProt P36405); experiment: as above
[5] = target: Arl2 (Arf-like GTPase) (UniProt P36404); experiment: as above
[6] = target: Rheb (Ras homolog enriched in brain) (UniProt Q15382); experiment: two-hybrid; LexA DNA-binding domain baits (pB27) and Gal4 Activation Domain prey (pP7) in diploid yeast; growth on DO-3 medium (lacking tryptophan, leucine, histidine) and blue colonies on DO-2 medium with X-gal
[7] = target: Rheb (Ras homolog enriched in brain) (UniProt Q15382); experiment: condition: only with Deltazinone 1 (5 μM highest concentration) or Deltasonamide 1 (20 μM highest concentration); two-hybrid; quantitative lacZ read-out (ONPG, DO-2 medium) in the presence of the PDEδ inhibitors Deltazinone 1 (5 μM highest concentration) or Deltasonamide 1 (20 μM highest concentration), 7 h or 24 h

PDEδ (Phosphodiesterase 6δ) (from UniProt O43924 1-150)
binding [1]: binds | binding [2]: binds | binding [3]: binds | binding [4]: binds | binding [5]: binds | binding [6]: binds | binding [7]: no binding
